Our source for the binding signal (log2 enrichment (interaction score)) values is publication PMC8384837.

Holding throughout (conditions): yeast three-hybrid, YBZ-1, SC-Leu-His + 0.5 mM 3-AT, 4 days
Assay [1] has as its target T1, PUM1 PUF domain R3-ATE C935A + R936T + Q939E (UniProt Q14671).
T1 sequence: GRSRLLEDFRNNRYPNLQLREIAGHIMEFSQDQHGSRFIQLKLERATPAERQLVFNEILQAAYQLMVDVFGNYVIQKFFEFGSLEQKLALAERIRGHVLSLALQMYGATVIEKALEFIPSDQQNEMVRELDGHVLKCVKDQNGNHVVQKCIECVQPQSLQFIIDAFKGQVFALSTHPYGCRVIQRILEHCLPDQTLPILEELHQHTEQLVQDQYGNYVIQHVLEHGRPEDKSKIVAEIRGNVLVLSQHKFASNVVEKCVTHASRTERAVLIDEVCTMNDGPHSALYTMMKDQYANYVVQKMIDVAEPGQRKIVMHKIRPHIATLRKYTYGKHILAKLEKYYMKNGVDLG

For assay [2], the target named is T2, PUM1 PUF domain R3-ERS C935E + Q939S (UniProt Q14671).
T2 sequence: T1 sequence with A108E, T109R, E112S

The target of assay [3] is T3, PUM1 PUF domain R3-FIA C935F + R936I + Q939A (UniProt Q14671).
T3 sequence: T1 sequence with A108F, T109I, E112A

Assay [4] deals with T4, PUM1 PUF domain R3-FIG C935F + R936I + Q939G (UniProt Q14671).
T4 sequence: T1 sequence with A108F, T109I, E112G

Assay [5] concerns the target T5, PUM1 PUF domain R3-FSE C935F + R936S + Q939E (UniProt Q14671).
T5 sequence: T1 sequence with A108F, T109S

In assay [6] the target is T6, PUM1 PUF domain R3-RDS C935R + R936D + Q939S (UniProt Q14671).
T6 sequence: T1 sequence with A108R, T109D, E112S

In assay [7] the target is T7, PUM1 PUF domain R3-RER C935R + R936E + Q939R (UniProt Q14671).
T7 sequence: T1 sequence with A108R, T109E, E112R

In assay [8] the target is T8, PUM1 PUF domain R3-RQS C935R + R936Q + Q939S (UniProt Q14671).
T8 sequence: T1 sequence with A108R, T109Q, E112S

Assay [9] addresses T9, PUM1 PUF domain R3-SAE C935S + R936A + Q939E (UniProt Q14671).
T9 sequence: T1 sequence with A108S, T109A

The target in assay [10] is T10, PUM1 PUF domain R3-SGE C935S + R936G + Q939E (UniProt Q14671).
T10 sequence: T1 sequence with A108S, T109G

For assay [11], the target named is T11, PUM1 PUF domain R3-STD C935S + R936T + Q939D (UniProt Q14671).
T11 sequence: T1 sequence with A108S, E112D

Assay [12] concerns the target T12, PUM1 PUF domain R3-TSE C935T + R936S + Q939E (UniProt Q14671).
T12 sequence: T1 sequence with A108T, T109S

Assay [13] addresses T13, PUM1 PUF domain R3-TTE C935T + R936T + Q939E (UniProt Q14671).
T13 sequence: T1 sequence with A108T

For assay [14], the target named is T14, PUM1 PUF domain R3-TVE C935T + R936V + Q939E (UniProt Q14671).
T14 sequence: T1 sequence with A108T, T109V

The target in assay [15] is T15, PUM1 PUF domain R3-YSV C935Y + R936S + Q939V (UniProt Q14671).
T15 sequence: T1 sequence with A108Y, T109S, E112V

In assay [16] the target is T16, PUM1 PUF domain R3-YWW C935Y + R936W + Q939W (UniProt Q14671).
T16 sequence: T1 sequence with A108Y, T109W, E112W

In assay [17] the target is T17, PUM1 PUF domain R4-GND N971G + H972N + Q975D (UniProt Q14671).
T17 sequence: T1 sequence with A108C, T109R, E112Q, N144G, H145N, Q148D

For assay [18], the target named is T18, PUM1 PUF domain R6-AWE N1043A + Y1044W + Q1047E (UniProt Q14671).
T18 sequence: T1 sequence with A108C, T109R, E112Q, N216A, Y217W, Q220E

Assay [19] deals with T19, PUM1 PUF domain R6-CYT N1043C + Q1047T (UniProt Q14671).
T19 sequence: T1 sequence with A108C, T109R, E112Q, N216C, Q220T

The target in assay [20] is T20, PUM1 PUF domain R6-YRS N1043Y + Y1044R + Q1047S (UniProt Q14671).
T20 sequence: T1 sequence with A108C, T109R, E112Q, N216Y, Y217R, Q220S

Substitutions are numbered along the chain they refer to. This is one part of the list. At the low end of the ranking, values are background and their order means little. Some results are limits rather than exact numbers.

For the sequence “GGCUAGAACUAGUGGAUCCCCCGGCGCCCGGCGGCUCGAGCCCGGGUAAGUGUAAAUAGUCUGCAUGCCGCCGGGCGCCAUGCCUGCAGGUCGACUCUAGAAAACAUG”, the binding signal (log2 enrichment (interaction score)) in assay [1] was -3.76; in assay [2] it was -5.3; in assay [3], < -8.7; in [4] it was -10.2; in assay [5], < -8.25; in assay [6] it was < -9. For the same sequence, the binding signal (log2 enrichment (interaction score)) in assay [7] was < -9.27; in [8] it was < -7.82; in assay [9], -3.73; in assay [10], < -9.35; in [11], < -9.44; in [12], < -9.14. The binding signal (log2 enrichment (interaction score)) in [13] was < -7.54; in assay [14] it was < -9.17; in [15], < -9.84; in assay [16] it was < -6.41; in [17], < -4.99; in assay [18] it was < -5.96. Besides, the binding signal (log2 enrichment (interaction score)) is < -6.41 in [19] and -6.97 in [20].
Take “GGCUAGAACUAGUGGAUCCCCCGGCGCCCGGCGGCUCGAGCCCGGGUAAGUGGAAAUAGUCUGCAUGCCGCCGGGCGCCAUGCCUGCAGGUCGACUCUAGAAAACAUG”: the binding signal (log2 enrichment (interaction score)) in assay [19] was < -8.04.
For “GGCUAGAACUAGUGGAUCCCCCGGCGCCCGGCGGCUCGAGCCCGGGUAAGUGUAAUUAGUCUGCAUGCCGCCGGGCGCCAUGCCUGCAGGUCGACUCUAGAAAACAUG”, the binding signal (log2 enrichment (interaction score)) was -4.6 in assay [1]; -3.68 in assay [2]; < -7.36 in assay [3]; < -8.96 in assay [4]; < -8 in assay [5]; < -8.12 in [9]. The binding signal (log2 enrichment (interaction score)) in assay [10] was -5.61; in [11] it was -5.34; in [12] it was < -8.61; in assay [13], < -7.54; in [14] it was < -8.19; in assay [15], -4.96. In [16], the binding signal (log2 enrichment (interaction score)) was -5.19.
With “GGCUAGAACUAGUGGAUCCCCCGGCGCCCGGCGGCUCGAGCCCGGGUAAGUGUACAUAGUCUGCAUGCCGCCGGGCGCCAUGCCUGCAGGUCGACUCUAGAAAACAUG”, the binding signal (log2 enrichment (interaction score)) in [17] was < -5.87.
For the sequence “GGCUAGAACUAGUGGAUCCCCCGGCGCCCGGCGGCUCGAGCCCGGGUAAGUGUAAGUAGUCUGCAUGCCGCCGGGCGCCAUGCCUGCAGGUCGACUCUAGAAAACAUG”, the binding signal (log2 enrichment (interaction score)) in assay [6] is < -9.22; in [7], -5.45; in [8], -5.71.
Regarding “GGCUAGAACUAGUGGAUCCCCCGGCGCCCGGCGGCUCGAGCCCGGGUAAGUGCAAAUAGUCUGCAUGCCGCCGGGCGCCAUGCCUGCAGGUCGACUCUAGAAAACAUG”, the results for the binding signal (log2 enrichment (interaction score)) in assay [18] and in assay [20] were -4.47 and < -7.99, respectively.
